Values joined by “and” are separate entries in the source; they are usually repeats but may differ in a detail not shown here. Identical values can stand only once. The list shows a part of the results. Repeats are few or missing, and single values can be far off.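 Primary human fetal astrocytes engulfed labelled rat cortical synaptosomes, measured as a red/green ratio corrected for calcein live-cell signal and scaled to the plate median. Toxicity meant calcein falling over 30%; decreased phagocytosis meant below 70% of median above 5 µM.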
tested on: Human fetal astrocytes; assay: synaptosome phagocytosis (pHrodo/calcein intensity ratio) relative to plate median of data wells; higher = more phagocytosis; conditions: 2.78 µM; 24 h

| Compound | synaptosome phagocytosis |
| --- | --- |
| C[C@@H]1C[C@H]2[C@@H]3C[C@H](F)C4=CC(=O)C=C[C@]4(C)[C@@]3(F)[C@@H](O)C[C@]2(C)[C@@]1(O)C(=O)CO | 106% |
| Nc1[nH]cnc2ncnc1-2 | 125% |
| COc1ccc2c(c1)OC[C@@H](Cc1ccc(OC)c(OC)c1)[C@H]2O | 82.3% |
| C[C@H]1[C@H](NC(=O)/C(=N\OC(C)(C)C(=O)O)c2csc(N)n2)C(=O)N1S(=O)(=O)O | 125% and 105% |
| O=C1N=C(O)NC1(c1ccccc1)c1ccccc1 | 117% |
| CC[C@H](C)C(=O)O[C@H]1C[C@H](O)C=C2C=C[C@H](C)[C@H](CC[C@@H](O)C[C@@H](O)CC(=O)O)[C@H]21 | 98.5% |
| CO/N=C(\C(=O)N[C@@H]1C(=O)N2C(C(=O)O)=C(COC(C)=O)CS[C@H]12)c1csc(N)n1 | 102% |
| CC1(C)[C@@H](O)CC[C@]2(C)[C@H]3C(=O)C=C4[C@@H]5C[C@@](C)(C(=O)O)CC[C@]5(C)CC[C@@]4(C)[C@]3(C)CC[C@@H]12 | 92.4% |
| Nc1c2ccccc2nc2ccccc12 | 104% |
| O=C(CCBr)N1CCN(C(=O)CCBr)CC1 | 124% |
| CCC(CCC(C)C1CCC2C3CCC4CC(O)CCC4(C)C3CCC12C)C(C)C (configuration not stated) | 102% |
| OCC(S)CS (configuration not stated) | 95% |
| O=C(O)CCCC[C@@H]1SC[C@@H]2NC(=O)N[C@@H]21 | 96.5% |
| CC(=O)c1cc2ccccc2oc1=O | 133% |
| CCCCCC(=O)O[C@]1(C(C)=O)CC[C@H]2[C@@H]3CCC4=CC(=O)CC[C@]4(C)[C@H]3CC[C@@]21C | 117% |
| CNCc1ccccc1 | 80.3% |
| C[C@H](CCC(=O)O)[C@H]1CC[C@H]2[C@@H]3[C@@H](O)C[C@@H]4C[C@H](O)CC[C@]4(C)[C@H]3CC[C@]12C | 98.2% |
| CCCCCCCCCCCCC[N+](C)(C)Cc1ccccc1 | 90.8% |

| Compound | synaptosome phagocytosis |
| --- | --- |
| CCOC(=O)[C@H](CCc1ccccc1)N[C@@H](C)C(=O)N1Cc2ccccc2C[C@H]1C(=O)O | 98% |
| CN1CCC(=C2c3ccccc3Sc3ccccc32)CC1 | 112% |
| CCOC(=O)CCC(=O)O[C@H]1[C@H](O[C@@H]2[C@@H](C)[C@H](O[C@H]3C[C@@](C)(OC)[C@@H](O)[C@H](C)O3)[C@@H](C)C(=O)O[C@H](CC)[C@@](C)(O)[C@H](O)[C@@H](C)C(=O)[C@H](C)C[C@@]2(C)O)O[C@H](C)C[C@@H]1N(C)C | 93.3% |
| Cc1cc(=O)n(-c2ccccc2)n1C | 101% |
| NNC(=O)c1ccncc1.Nc1ccc(C(=O)O)c(O)c1 | 103% |
| NC(=O)c1ccccc1O | 124% |
| O=C(N/N=C/c1ccc([N+](=O)[O-])o1)c1ccc(O)cc1 | 95.5% |
| Clc1ccccc1C(c1ccccc1)(c1ccccc1)n1ccnc1 [Clotrimazole] | 82.7% |
| O=C1CN2Cc3c(ccc(Cl)c3Cl)N=C2N1 | 86.9% |
| CC(C)CCCCC(=O)N[C@@H](CCN)C(=O)N[C@@H](CN[C@@H](CCN)C(=O)N[C@H]1CCNC(=O)[C@H]([C@@H](C)O)NC(=O)[C@H](CCN)NC(=O)[C@H](CCN)NC(=O)[C@H](CC(C)C)NC(=O)[C@@H](CC(C)C)NC(=O)[C@H](CCN)NC1=O)[C@@H](C)O.CCC(C)CCCCC(=O)N[C@@H](CCN)C(=O)N[C@@H](CN[C@@H](CCN)C(=O)N[C@H]1CCNC(=O)[C@H]([C@@H](C)O)NC(=O)[C@H](CCN)NC(=O)[C@H](CCN)NC(=O)[C@H](CC(C)C)NC(=O)[C@@H](CC(C)C)NC(=O)[C@H](CCN)NC1=O)[C@@H](C)O (some centres not stated) | 102% |
| CC(=O)O[C@H]1CC[C@]2(C)[C@H]3CC[C@@]4(C)[C@H](c5ccoc5)OC(=O)[C@H]5O[C@]54[C@]3(C)[C@H](OC(C)=O)C[C@H]2C1(C)C [3beta-ACETOXYDEOXODIHYDROGEDUNIN] | 110% |
| C#C[C@]1(OC(C)=O)CC[C@H]2[C@@H]3CCC4=CC(=O)CC[C@@H]4[C@H]3CC[C@@]21C | 63.7% |
| Cc1c(Nc2ncccc2C(=O)O)cccc1C(F)(F)F | 100% |
| CNCCc1ccccn1 | 113% |
| COc1cc(C(=O)NCCCCCC(=O)O)cc(OC)c1OC | 88.9% |
| C[C@H]1O[C@@H](O[C@H]2[C@@H](O)C[C@H](O[C@H]3[C@@H](O)C[C@H](O[C@H]4CC[C@@]5(C)[C@H](CC[C@@H]6[C@@H]5CC[C@]5(C)[C@@H](C7=CC(=O)OC7)CC[C@]65O)C4)O[C@@H]3C)O[C@@H]2C)C[C@H](O)[C@@H]1O | 57.3% |
| C=C1C[C@]23C[C@@]1(O)CC[C@H]2[C@@]12C=C[C@H](O)[C@@](C)(C(=O)O1)[C@H]2[C@@H]3C(=O)O | 95.2% |
| COc1cc(-c2cc(=O)c3c(O)c(OC)c(OC)c(OC)c3o2)cc(OC)c1OC | 72.5% |

same assay, conditions: 5.56 µM; 24 h

| Compound | synaptosome phagocytosis |
| --- | --- |
| C[C@@H]1C[C@H]2[C@@H]3C[C@H](F)C4=CC(=O)C=C[C@]4(C)[C@@]3(F)[C@@H](O)C[C@]2(C)[C@@]1(O)C(=O)CO | 94.7% |
| Nc1[nH]cnc2ncnc1-2 | 90.9% |
| COc1ccc2c(c1)OC[C@@H](Cc1ccc(OC)c(OC)c1)[C@H]2O | 104% |
| C[C@H]1[C@H](NC(=O)/C(=N\OC(C)(C)C(=O)O)c2csc(N)n2)C(=O)N1S(=O)(=O)O | 97.9% and 81.8% |
| O=C1N=C(O)NC1(c1ccccc1)c1ccccc1 | 107% |
| CC[C@H](C)C(=O)O[C@H]1C[C@H](O)C=C2C=C[C@H](C)[C@H](CC[C@@H](O)C[C@@H](O)CC(=O)O)[C@H]21 | 96.3% |
| CO/N=C(\C(=O)N[C@@H]1C(=O)N2C(C(=O)O)=C(COC(C)=O)CS[C@H]12)c1csc(N)n1 | 99.4% |
| CC1(C)[C@@H](O)CC[C@]2(C)[C@H]3C(=O)C=C4[C@@H]5C[C@@](C)(C(=O)O)CC[C@]5(C)CC[C@@]4(C)[C@]3(C)CC[C@@H]12 | 116% |
| Nc1c2ccccc2nc2ccccc12 | 95.5% |
| O=C(CCBr)N1CCN(C(=O)CCBr)CC1 | 136% |
| CCC(CCC(C)C1CCC2C3CCC4CC(O)CCC4(C)C3CCC12C)C(C)C (configuration not stated) | 102% |
| OCC(S)CS (configuration not stated) | 94.3% |
| O=C(O)CCCC[C@@H]1SC[C@@H]2NC(=O)N[C@@H]21 | 103% |
| CC(=O)c1cc2ccccc2oc1=O | 103% |
| CCCCCC(=O)O[C@]1(C(C)=O)CC[C@H]2[C@@H]3CCC4=CC(=O)CC[C@]4(C)[C@H]3CC[C@@]21C | 94% |
| CNCc1ccccc1 | 125% |
| C[C@H](CCC(=O)O)[C@H]1CC[C@H]2[C@@H]3[C@@H](O)C[C@@H]4C[C@H](O)CC[C@]4(C)[C@H]3CC[C@]12C | 99.2% |
| CCCCCCCCCCCCC[N+](C)(C)Cc1ccccc1 | 108% |

| Compound | synaptosome phagocytosis |
| --- | --- |
| CCOC(=O)[C@H](CCc1ccccc1)N[C@@H](C)C(=O)N1Cc2ccccc2C[C@H]1C(=O)O | 100% |
| CN1CCC(=C2c3ccccc3Sc3ccccc32)CC1 | 104% |
| CCOC(=O)CCC(=O)O[C@H]1[C@H](O[C@@H]2[C@@H](C)[C@H](O[C@H]3C[C@@](C)(OC)[C@@H](O)[C@H](C)O3)[C@@H](C)C(=O)O[C@H](CC)[C@@](C)(O)[C@H](O)[C@@H](C)C(=O)[C@H](C)C[C@@]2(C)O)O[C@H](C)C[C@@H]1N(C)C | 109% |
| Cc1cc(=O)n(-c2ccccc2)n1C | 98.4% |
| NNC(=O)c1ccncc1.Nc1ccc(C(=O)O)c(O)c1 | 126% |
| NC(=O)c1ccccc1O | 118% |
| O=C(N/N=C/c1ccc([N+](=O)[O-])o1)c1ccc(O)cc1 | 68.9% |
| Clc1ccccc1C(c1ccccc1)(c1ccccc1)n1ccnc1 [Clotrimazole] | 102% |
| O=C1CN2Cc3c(ccc(Cl)c3Cl)N=C2N1 | 104% |
| CC(C)CCCCC(=O)N[C@@H](CCN)C(=O)N[C@@H](CN[C@@H](CCN)C(=O)N[C@H]1CCNC(=O)[C@H]([C@@H](C)O)NC(=O)[C@H](CCN)NC(=O)[C@H](CCN)NC(=O)[C@H](CC(C)C)NC(=O)[C@@H](CC(C)C)NC(=O)[C@H](CCN)NC1=O)[C@@H](C)O.CCC(C)CCCCC(=O)N[C@@H](CCN)C(=O)N[C@@H](CN[C@@H](CCN)C(=O)N[C@H]1CCNC(=O)[C@H]([C@@H](C)O)NC(=O)[C@H](CCN)NC(=O)[C@H](CCN)NC(=O)[C@H](CC(C)C)NC(=O)[C@@H](CC(C)C)NC(=O)[C@H](CCN)NC1=O)[C@@H](C)O (some centres not stated) | 165% |
| CC(=O)O[C@H]1CC[C@]2(C)[C@H]3CC[C@@]4(C)[C@H](c5ccoc5)OC(=O)[C@H]5O[C@]54[C@]3(C)[C@H](OC(C)=O)C[C@H]2C1(C)C [3beta-ACETOXYDEOXODIHYDROGEDUNIN] | 80.8% |
| C#C[C@]1(OC(C)=O)CC[C@H]2[C@@H]3CCC4=CC(=O)CC[C@@H]4[C@H]3CC[C@@]21C | 99.2% |
| Cc1c(Nc2ncccc2C(=O)O)cccc1C(F)(F)F | 123% |
| CNCCc1ccccn1 | 92.4% |
| COc1cc(C(=O)NCCCCCC(=O)O)cc(OC)c1OC | 111% |
| C[C@H]1O[C@@H](O[C@H]2[C@@H](O)C[C@H](O[C@H]3[C@@H](O)C[C@H](O[C@H]4CC[C@@]5(C)[C@H](CC[C@@H]6[C@@H]5CC[C@]5(C)[C@@H](C7=CC(=O)OC7)CC[C@]65O)C4)O[C@@H]3C)O[C@@H]2C)C[C@H](O)[C@@H]1O | 65.6% |
| C=C1C[C@]23C[C@@]1(O)CC[C@H]2[C@@]12C=C[C@H](O)[C@@](C)(C(=O)O1)[C@H]2[C@@H]3C(=O)O | 118% |
| COc1cc(-c2cc(=O)c3c(O)c(OC)c(OC)c(OC)c3o2)cc(OC)c1OC | 106% |

From the supplement of paper PMC10689618
